# Data published in publication PMC7819943, “Rice protein-binding microarrays: a tool to detect cis-acting elements near promoter regions in rice”.
# Protein sequences, listed by entry. Tags and fused reporters are not part of them.
# UniProt Q0JBA9, entry or part of it: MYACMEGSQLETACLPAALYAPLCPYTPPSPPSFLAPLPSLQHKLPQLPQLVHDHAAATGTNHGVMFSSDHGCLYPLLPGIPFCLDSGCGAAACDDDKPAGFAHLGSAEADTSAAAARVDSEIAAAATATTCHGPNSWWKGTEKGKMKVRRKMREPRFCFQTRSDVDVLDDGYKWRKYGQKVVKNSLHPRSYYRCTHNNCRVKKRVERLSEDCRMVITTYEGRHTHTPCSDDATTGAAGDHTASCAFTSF
# This is one part of the list.
# Target: OsWRKY34 (Oryza sativa, UniProt Q0JBA9 1-250)
# Test: protein-binding microarray (RPBM); PBS, 2% BSA, 51.3 ng/ul salmon testes DNA, 50 uM zinc acetate, 200 nM TF, 25 C, 1 h; high values mean tight binding
# Details: protein: recombinant; tags: N-terminal polyhistidine and DsRed monomer fusion (pET32a); label: CyDye5-dUTP incorporated in the synthesized complementary strand; 3' TTTTT single-stranded linker to array surface; dsDNA, one strand shown
# In short: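 Binding signal is defined as the fluorescence intensity of each feature in arbitrary units, read on an Axon 4000B scanner. Transcription factors with N-terminal polyhistidine and DsRed fusions came from E. coli BL21-CodonPlus and were purified on Ni–NTA. They were incubated at 200 nM for 1 h at 25 °C on a custom Agilent array that had been made double-stranded with Cy5-dUTP, with 50 µM zinc acetate present, and the array was washed.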
row,Sequence,binding signal
1,TCATAGTACTTTAAGTGTGATTTATATCTTGTATATTTACCGGAGTCACCTAGTGCAG,8880 fluorescence intensity (a.u.)
2,GGCAGCTGTCTGATCCTGGTTTAACATCTTGAGAATTTTACGGAGTCACCTAGTGCAG,8450 fluorescence intensity (a.u.)
3,CCCTCTTTTCCGCACGCACGCTTTTCAAACTGCTAAACGACGGAGTCACCTAGTGCAG,9760 fluorescence intensity (a.u.)
4,TACAGAACTTTTATCTGCTACCATCTACTTAACTGGCTTACGGAGTCACCTAGTGCAG,8670 fluorescence intensity (a.u.)
5,GGTGGGACGTGGTGGGCGTCAAGGCGGCGGTGGGAGGGGACGGAGTCACCTAGTGCAG,20400 fluorescence intensity (a.u.)
6,TCATTTTCTGAAAAATCTGATTTCTATTTTTTTTCCATTTCGGAGTCACCTAGTGCAG,10100 fluorescence intensity (a.u.)
7,AAATCCTCTCGTTTCTCCGCTCGCTGATTCATTCTCAACGCGGAGTCACCTAGTGCAG,9020 fluorescence intensity (a.u.)
8,TGAATATGGCAGCTTGGATCATTTACCTTTTAGCGTCCCTCGGAGTCACCTAGTGCAG,8750 fluorescence intensity (a.u.)
9,TTCGACTTTCAACCGGTCAGTCTCAGCGCTCTTTCTGATCCGGAGTCACCTAGTGCAG,9730 fluorescence intensity (a.u.)
10,AATACTTAATTTTGTACTGATAGTAATCATTTGCATTCTACGGAGTCACCTAGTGCAG,9320 fluorescence intensity (a.u.)
11,ATGTAATTCACGCTCCATGTACTGCACATGATTTCGCACACGGAGTCACCTAGTGCAG,8200 fluorescence intensity (a.u.)
12,ACGGTGCATCTCTCAGCCACACAGCCCCACCCGCGCCATGCGGAGTCACCTAGTGCAG,9850 fluorescence intensity (a.u.)
13,CACCCCAGTCCCGTGTATTCCCCGCTCTTCCGCCTTCCGCCGGAGTCACCTAGTGCAG,8410 fluorescence intensity (a.u.)
14,CCATGGTCTCTTGATCGAGGTGTTCATTTTTTTTCCTCAACGGAGTCACCTAGTGCAG,11900 fluorescence intensity (a.u.)
15,CTCCCACCCTGCTTCACTCTGTGTCCCTGTGACAGACAAACGGAGTCACCTAGTGCAG,8230 fluorescence intensity (a.u.)
16,GTCCGCGTCACGCACGCGCGCCTGCTCTTGCCGCTCGATCCGGAGTCACCTAGTGCAG,12200 fluorescence intensity (a.u.)
17,CCGCCGCCATTGACGACCACCGCGCTCGTCCCATCCCATGCGGAGTCACCTAGTGCAG,9050 fluorescence intensity (a.u.)
18,ATCTCTCTCATCCGATTTCTACGTTTTTCCCGCGGTCAAACGGAGTCACCTAGTGCAG,9690 fluorescence intensity (a.u.)
19,CGTGGATTATTTCATTCCGTACCACTCCATCCATCCGAAGCGGAGTCACCTAGTGCAG,8360 fluorescence intensity (a.u.)
20,GTAGTAACCTCTTGTTCGGTGTAGTGTGTAATTTTATTAGCGGAGTCACCTAGTGCAG,8640 fluorescence intensity (a.u.)
21,CGGGTTCAATATATTGTTTTTTTTAAGACTGGTTCAATATCGGAGTCACCTAGTGCAG,8880 fluorescence intensity (a.u.)
22,TATTACTTGGACCACTTTAAACTATTCATCATGTTTATTTCGGAGTCACCTAGTGCAG,8500 fluorescence intensity (a.u.)
23,CCGCCATCTCATCTGATCTCATCCATTGATCCTCCTCGTTCGGAGTCACCTAGTGCAG,10400 fluorescence intensity (a.u.)
24,TCACACGCGCGCCACACTCATGCCATGTATGTCTATATATCGGAGTCACCTAGTGCAG,15400 fluorescence intensity (a.u.)
25,AGGACTTTGGTTATCTAATCGAGTTTGTGTCTTTTTTTGTCGGAGTCACCTAGTGCAG,8910 fluorescence intensity (a.u.)
26,GCTTCCGCGTTTCTTCTCGGCGACGCACCCCACACACGCACGGAGTCACCTAGTGCAG,9370 fluorescence intensity (a.u.)
27,AGTCTAAAATTTACCGCCTGTTTTGCACATATGTTTGGATCGGAGTCACCTAGTGCAG,8510 fluorescence intensity (a.u.)

# 2 entries from above in a different format:
row | Sequence | binding signal
22 | TATTACTTGGACCACTTTAAACTATTCATCATGTTTATTTCGGAGTCACCTAGTGCAG | 8500 fluorescence intensity (a.u.)
23 | CCGCCATCTCATCTGATCTCATCCATTGATCCTCCTCGTTCGGAGTCACCTAGTGCAG | 10400 fluorescence intensity (a.u.)

# (further entries)

row,Sequence,binding signal
1,ATGACCATATATGTAACCATGTATGCAGGGGCGGATCCAGCGGAGTCACCTAGTGCAG,8660 fluorescence intensity (a.u.)
2,ATGGTTTCCGTCCGTTTCCGTACCGTTTTCACCCCTACCCCGGAGTCACCTAGTGCAG,10100 fluorescence intensity (a.u.)
3,TTAGTTGAGAGACGTTCGGTATTTGGTTTTGCGGTTGGGGCGGAGTCACCTAGTGCAG,11200 fluorescence intensity (a.u.)
4,GTCTCAATTCTCATCTACTCTCTTCTCTCCCTGTATGACCCGGAGTCACCTAGTGCAG,8160 fluorescence intensity (a.u.)
5,TCGTTTGCCCGGATTTCATAAGTTGAGGGATGGGTTATACCGGAGTCACCTAGTGCAG,8560 fluorescence intensity (a.u.)
6,CACAACTACTCCATATTTCCTTTTTTCTCATTTCTTCGATCGGAGTCACCTAGTGCAG,10400 fluorescence intensity (a.u.)
7,AACCCATTTTCTGCTCTGCTCTTGCTTTGCTTTGCATTTCCGGAGTCACCTAGTGCAG,14000 fluorescence intensity (a.u.)
8,TACATATGGTCTACGTACGCCGTCGAGTTGGGTGGGAAGACGGAGTCACCTAGTGCAG,8980 fluorescence intensity (a.u.)
9,ACCAGCTTGTTTTCCTCCTTATCAGTTCTTCTATACTGTCCGGAGTCACCTAGTGCAG,8050 fluorescence intensity (a.u.)
10,TGCATACCCCTTTCGTTTCCCTACCATATTCTCCGGGTGACGGAGTCACCTAGTGCAG,12800 fluorescence intensity (a.u.)
11,TTTTTTCTTTTAGCAAATTCCCTTGCTGATTTGGCACTTTCGGAGTCACCTAGTGCAG,9750 fluorescence intensity (a.u.)
12,CCCATTGTTATTCCCCTACGTTTGTAATAAACTCCTCTATCGGAGTCACCTAGTGCAG,8430 fluorescence intensity (a.u.)
13,AGAGCTAACTATTTTTTCCTCCTGGGTTGGAGATGCCACACGGAGTCACCTAGTGCAG,8720 fluorescence intensity (a.u.)
14,CCCCGATTCCACCACAGGCCACAGACCCTTCACCCGTGGCCGGAGTCACCTAGTGCAG,8760 fluorescence intensity (a.u.)
15,TCCATCCCGCATCCGATTCTTCCAACCAATCTCATCTTCTCGGAGTCACCTAGTGCAG,9490 fluorescence intensity (a.u.)
16,CAACTTCTCTACGCTTCATCACAAAACCGCCTTAAGAACCCGGAGTCACCTAGTGCAG,8720 fluorescence intensity (a.u.)
17,GAGTCGTCCTAGTTTTGTTCATCGCCGTCGTCTATTATTGCGGAGTCACCTAGTGCAG,9180 fluorescence intensity (a.u.)
18,TACTGTTGCTGCTAGTTCACCATTTGCGCATTTCCTCTTCCGGAGTCACCTAGTGCAG,11700 fluorescence intensity (a.u.)
19,CTAAGTTTTTGTGTCCAATTTTGATTGTCCGTCTTATATGCGGAGTCACCTAGTGCAG,9720 fluorescence intensity (a.u.)
20,GTAGGGTTGCTTGTGAAGATGAAATTATATGCCTAATTAACGGAGTCACCTAGTGCAG,11800 fluorescence intensity (a.u.)
21,ACATTGTCGGGAGCATACCTCTCATCAAGTTATCACATTTCGGAGTCACCTAGTGCAG,9910 fluorescence intensity (a.u.)
22,AGATATGTAGTCCGTCATTCTTTTCTATCATCTTTTATCTCGGAGTCACCTAGTGCAG,11700 fluorescence intensity (a.u.)
23,CCTACCGCTCATCATCTTCTCTAGCCACAGGCCACAACCTCGGAGTCACCTAGTGCAG,8520 fluorescence intensity (a.u.)
24,TGATGTTTCTGTCCTTACTTATTTGACCCTGTATTAATTACGGAGTCACCTAGTGCAG,10800 fluorescence intensity (a.u.)
25,GATTGATCGCCTCTCCGCCGCCGCCGCTGCCGCCGCAGCCCGGAGTCACCTAGTGCAG,9580 fluorescence intensity (a.u.)
26,GCAACACGCTCCTTCCGCTTGAGGCCAAGTAGCAGCTTCCCGGAGTCACCTAGTGCAG,8050 fluorescence intensity (a.u.)
27,GCCATTGACAGCGTTGACCAAGTCAGCCGCTCCAGCCTCTCGGAGTCACCTAGTGCAG,14200 fluorescence intensity (a.u.)

# Looked up one by one from the list above (two):
row,Sequence,binding signal
14,CCATGGTCTCTTGATCGAGGTGTTCATTTTTTTTCCTCAACGGAGTCACCTAGTGCAG,11900 fluorescence intensity (a.u.)
26,GCTTCCGCGTTTCTTCTCGGCGACGCACCCCACACACGCACGGAGTCACCTAGTGCAG,9370 fluorescence intensity (a.u.)
